Measurements reported in PubChem BioAssay AID652272 (Drosophila RNAi Screening Center, 2013)
Purpose: 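Finding fly genes that regulate Hedgehog signal transduction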 (primary screen). System: Drosophila clone 8 (Cl8) cells. Knock-down reagent: long dsRNA against Drosophila genes. Measured: 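Firefly light from a Hedgehog-responsive ptc promoter reporter and Renilla reference light, both read on a plate reader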. Reading the numbers: firefly Hh reporter signal: higher = more ptc reporter light; Renilla reference signal: higher = more Renilla control light. Call rule: 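Hit when the z-score averaged over two replicates is under -2 or over +3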. Meaning of the calls: active = hit: reporter lowered or raised; inactive = not a hit.
The screen tested about 21,000 reagents; shown is an unselected part of those that have a named target and a result. In the full data, 503 (2.4%) got an active call. 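Raw plate light values, not normalised; calls rest on replicate z-scores that were not deposited; hits include reporter decreases as well as increases.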 The record does not give: the amount of reagent, the time to read-out.

AstC-R2 [DRSC10051] — firefly Hh reporter signal, replicate 1: 1.55e5; Renilla reference signal, replicate 1: 7718; Renilla reference signal, replicate 2: 4343; outcome: inactive
E2f1 [DRSC16655] — firefly Hh reporter signal, replicate 1: 7.69e5; firefly Hh reporter signal, replicate 2: 1.67e5; Renilla reference signal, replicate 1: 36579; Renilla reference signal, replicate 2: 2361; outcome: inactive
CG34115 [DRSC03840] — firefly Hh reporter signal, replicate 1: 1.50e5; firefly Hh reporter signal, replicate 2: 3.35e5; Renilla reference signal, replicate 1: 5611; Renilla reference signal, replicate 2: 16089; outcome: inactive
CG13081 [DRSC02185] — firefly Hh reporter signal, replicate 1: 70416; firefly Hh reporter signal, replicate 2: 44636; Renilla reference signal, replicate 1: 1820; Renilla reference signal, replicate 2: 3929; outcome: inactive
Tsp96F [DRSC14147] — firefly Hh reporter signal, replicate 1: 71984; firefly Hh reporter signal, replicate 2: 1.17e5; Renilla reference signal, replicate 1: 1522; Renilla reference signal, replicate 2: 3335; outcome: inactive
unpg [DRSC07713] — firefly Hh reporter signal, replicate 1: 71851; firefly Hh reporter signal, replicate 2: 41169; Renilla reference signal, replicate 1: 1715; Renilla reference signal, replicate 2: 3488; outcome: inactive
klar [DRSC08718] — firefly Hh reporter signal, replicate 1: 1.61e5; firefly Hh reporter signal, replicate 2: 1.19e5; Renilla reference signal, replicate 1: 6973; Renilla reference signal, replicate 2: 4889; outcome: inactive
CG43074 [DRSC08044] — firefly Hh reporter signal, replicate 1: 98759; firefly Hh reporter signal, replicate 2: 2.64e5; Renilla reference signal, replicate 1: 2506; Renilla reference signal, replicate 2: 9954; outcome: inactive

Continued, starting with the last 3 of the part before.
unpg [DRSC07713] — firefly Hh reporter signal, replicate 1: 71851; firefly Hh reporter signal, replicate 2: 41169; Renilla reference signal, replicate 1: 1715; Renilla reference signal, replicate 2: 3488; outcome: inactive
klar [DRSC08718] — firefly Hh reporter signal, replicate 1: 1.61e5; firefly Hh reporter signal, replicate 2: 1.19e5; Renilla reference signal, replicate 1: 6973; Renilla reference signal, replicate 2: 4889; outcome: inactive
CG43074 [DRSC08044] — firefly Hh reporter signal, replicate 1: 98759; firefly Hh reporter signal, replicate 2: 2.64e5; Renilla reference signal, replicate 1: 2506; Renilla reference signal, replicate 2: 9954; outcome: inactive
CG42329 [DRSC00373] — firefly Hh reporter signal, replicate 1: 94744; firefly Hh reporter signal, replicate 2: 1.07e5; Renilla reference signal, replicate 1: 2416; Renilla reference signal, replicate 2: 2712; outcome: inactive
CG42329 [DRSC00682] — firefly Hh reporter signal, replicate 1: 1.07e5; firefly Hh reporter signal, replicate 2: 64140; Renilla reference signal, replicate 1: 2388; Renilla reference signal, replicate 2: 1712; outcome: inactive
Arp10 [DRSC19448] — firefly Hh reporter signal, replicate 1: 77130; firefly Hh reporter signal, replicate 2: 53923; Renilla reference signal, replicate 1: 2052; Renilla reference signal, replicate 2: 1388; outcome: inactive
Bub3 [DRSC14168] — firefly Hh reporter signal, replicate 1: 86813; firefly Hh reporter signal, replicate 2: 67138; Renilla reference signal, replicate 1: 2454; Renilla reference signal, replicate 2: 2249; outcome: inactive
mRpL40 [DRSC15749] — firefly Hh reporter signal, replicate 1: 65033; firefly Hh reporter signal, replicate 2: 71273; Renilla reference signal, replicate 1: 2217; Renilla reference signal, replicate 2: 2221; outcome: inactive
Or1a [DRSC18689] — firefly Hh reporter signal, replicate 1: 1.07e5; firefly Hh reporter signal, replicate 2: 2.00e5; Renilla reference signal, replicate 1: 3664; Renilla reference signal, replicate 2: 8917; outcome: inactive
snRNP-U1-70K [DRSC03612] — firefly Hh reporter signal, replicate 1: 1.62e5; firefly Hh reporter signal, replicate 2: 6.46e5; firefly Hh reporter signal, replicate 3: 92669; Renilla reference signal, replicate 1: 4119; Renilla reference signal, replicate 2: 41804; outcome: inactive
CG4995 [DRSC02801] — firefly Hh reporter signal, replicate 1: 1.67e5; firefly Hh reporter signal, replicate 2: 80499; Renilla reference signal, replicate 1: 6371; Renilla reference signal, replicate 2: 3533; outcome: inactive
Dus3 [DRSC02059] — firefly Hh reporter signal, replicate 1: 77814; firefly Hh reporter signal, replicate 2: 69132; Renilla reference signal, replicate 1: 2128; Renilla reference signal, replicate 2: 5830; outcome: inactive
CG43292 [DRSC08883] — firefly Hh reporter signal, replicate 1: 7.81e5; firefly Hh reporter signal, replicate 2: 1.66e5; firefly Hh reporter signal, replicate 3: 1.19e5; Renilla reference signal, replicate 1: 4994; Renilla reference signal, replicate 2: 3914; outcome: inactive
temp [DRSC18271] — firefly Hh reporter signal, replicate 1: 1.24e5; firefly Hh reporter signal, replicate 2: 87224; Renilla reference signal, replicate 1: 2904; Renilla reference signal, replicate 2: 2644; outcome: inactive
CG6071 [DRSC10579] — firefly Hh reporter signal, replicate 1: 42784; firefly Hh reporter signal, replicate 2: 47237; firefly Hh reporter signal, replicate 3: 67611; Renilla reference signal, replicate 1: 4004; Renilla reference signal, replicate 2: 4128; outcome: inactive
Mlc2 [DRSC16741] — firefly Hh reporter signal, replicate 1: 69024; firefly Hh reporter signal, replicate 2: 59379; Renilla reference signal, replicate 1: 2561; Renilla reference signal, replicate 2: 3251; outcome: active
